Results as given in paper PMC4598761.
These are yes or no findings as the source states them, for the method shown. Where a sequence is shown, tags or fusion partners need not be part of it.

Target: T1, His-GBA3-HA (recombinant epitope-tagged cytosolic β-glycosidase GBA3) (human) (UniProt Q9H227)
T1 sequence: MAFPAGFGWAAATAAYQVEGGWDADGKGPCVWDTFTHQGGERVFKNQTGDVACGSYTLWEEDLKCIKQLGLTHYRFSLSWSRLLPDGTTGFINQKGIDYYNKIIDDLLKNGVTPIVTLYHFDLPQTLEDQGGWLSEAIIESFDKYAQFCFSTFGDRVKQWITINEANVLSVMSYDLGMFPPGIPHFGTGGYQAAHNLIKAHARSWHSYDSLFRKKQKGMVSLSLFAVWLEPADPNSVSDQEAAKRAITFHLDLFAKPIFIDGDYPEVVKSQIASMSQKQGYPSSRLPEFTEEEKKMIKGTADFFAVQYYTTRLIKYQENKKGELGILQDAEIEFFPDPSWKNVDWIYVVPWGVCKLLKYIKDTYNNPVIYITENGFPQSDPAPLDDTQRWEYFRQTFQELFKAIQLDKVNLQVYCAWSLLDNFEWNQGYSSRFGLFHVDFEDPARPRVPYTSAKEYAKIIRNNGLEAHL
Test: pull-down; purified recombinant proteins mixed overnight at 4 °C (1.5 mg/mL each), precipitated with 20 μL Ni-Sepharose 6 Fast Flow for 1 h at 4 °C (His-tagged protein held), washed three times with PBS, western blotting; both purified

- binding: no binding
Substance: GST alone
